Among the data in patent publication US20250221943A1 (CAMBRIDGE ENTERPRISE LIMITED, priority 2022, published 2025) are conjugation yield values, retold here.

This series can be described thus: general procedure: peptide synthesis; HATU/DIPEA. The following applies: conjugation step.

Take H-QGAIGLPGC-OH: the conjugation yield is recorded as 61%.
